# Experimental data reported in US20130131059A1, “METHOD FOR TREATING OPHTHALMIC DISEASES USING KINASE INHIBITOR COMPOUNDS IN PRODRUG FORMS” (INSPIRE PHARMACEUTICALS, INC., priority 2010, published 2013).
# Some entries share one result that the patent states for a list of compounds.
# Assay: Ocular comfort, composite behaviour score after ocular instillation
# Assay type: in vivo, rabbit
# Conditions: 4 mM, two drops to right eye, evaluated for 15 minutes; FIGS. 1 and 2
# Protocol: The desired compound at a concentration of 4 mM in a formulation of 10 mM phosphate, 1% polysorbate 80, 0.85% NaCl, 0.02% BAC, 0.2% EDTA pH 7.0 was administered as two 30 µl drops to the right eye of each rabbit within a dosing group. The rabbits were evaluated for 15 minutes after ocular instillation and their changes in behavior were recorded. […] The higher the score, the more discomfort an animal senses. A mean ±SE was generated for each group and depicted in FIGS. 1 and 2.
row,Structure (SMILES),Ocular discomfort (composite score) versus parent compound
1,"CC(C)CC(=O)OCCOc1cccc(CN2CC[C@@H](Nc3cccc4cnccc34)C2)c1 [Compound 18, 2-(3-((((R)-3-(isoquinolin-5-ylamino)pyrrolidin-1-yl)methyl)phenoxy)ethyl 3-methylbutanoate)]",reduced level of discomfort compared to the parent compound
2,"CCOC(=O)OCCOc1cccc(CN2CC[C@@H](Nc3cccc4cnccc34)C2)c1 [Compound 17, 2-(3-(((R)-3-(isoquinolin-5-ylamino)pyrrolidin-1-yl)methyl)phenoxy)ethyl ethyl carbonate]",reduced level of discomfort compared to the parent compound
3,"CC(C)(C)C(=O)OCCOc1cccc(CN2CC[C@@H](Nc3cccc4cnccc34)C2)c1 [Compound 20, 2-(3-(((R)-3-(isoquinolin-5-ylamino)pyrrolidin-1-yl)methyl)phenoxy)ethyl pivalate]",reduced level of discomfort compared to the parent compound
4,"CC1(C(=O)OCCOc2cccc(CN3CC[C@@H](Nc4cccc5cnccc45)C3)c2)CC1 [Compound 19, 2-(3-(((R)-3-(isoquinolin-5-ylamino)pyrrolidin-1-yl)methyl)phenoxy)ethyl 1-methylcyclopropanecarboxylate]",reduced level of discomfort compared to the parent compound
